Measured values as given in the supplement of paper PMC6411743.
± gives the standard deviation of the averaged measurements. The list shows a part of the results, in another mix than the full data. Most values lie at the level of the controls, where differences are scatter.

Chains of the proteins cited; added tags and fusions are not shown. Lines headed by an entry give the natural chain unless they say otherwise; changes in a name come on top.
UniProt Q92738: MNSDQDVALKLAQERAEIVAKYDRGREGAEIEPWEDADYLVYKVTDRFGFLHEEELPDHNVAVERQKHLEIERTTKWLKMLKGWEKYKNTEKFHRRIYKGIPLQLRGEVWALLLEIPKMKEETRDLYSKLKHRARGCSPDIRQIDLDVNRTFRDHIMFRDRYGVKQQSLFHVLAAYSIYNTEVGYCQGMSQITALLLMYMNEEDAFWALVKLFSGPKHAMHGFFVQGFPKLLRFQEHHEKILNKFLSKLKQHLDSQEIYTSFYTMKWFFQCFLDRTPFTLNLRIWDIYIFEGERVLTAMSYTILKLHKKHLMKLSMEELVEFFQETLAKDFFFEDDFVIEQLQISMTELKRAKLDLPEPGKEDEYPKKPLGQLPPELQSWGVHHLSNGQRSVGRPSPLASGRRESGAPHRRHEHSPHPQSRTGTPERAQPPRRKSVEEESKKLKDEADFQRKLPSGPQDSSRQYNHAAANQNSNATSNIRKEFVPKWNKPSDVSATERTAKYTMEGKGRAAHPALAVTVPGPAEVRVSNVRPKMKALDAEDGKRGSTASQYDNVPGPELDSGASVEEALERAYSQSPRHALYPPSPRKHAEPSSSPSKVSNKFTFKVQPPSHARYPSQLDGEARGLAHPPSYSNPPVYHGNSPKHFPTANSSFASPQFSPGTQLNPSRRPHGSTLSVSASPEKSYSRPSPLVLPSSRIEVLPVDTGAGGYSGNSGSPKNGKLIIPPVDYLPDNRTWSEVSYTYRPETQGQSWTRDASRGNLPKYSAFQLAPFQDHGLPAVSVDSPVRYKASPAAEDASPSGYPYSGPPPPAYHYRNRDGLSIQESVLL
UniProt Q8WVK2: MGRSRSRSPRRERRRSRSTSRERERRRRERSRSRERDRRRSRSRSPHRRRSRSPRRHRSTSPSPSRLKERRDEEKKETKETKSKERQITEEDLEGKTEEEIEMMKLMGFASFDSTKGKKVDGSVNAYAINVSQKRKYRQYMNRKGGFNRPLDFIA
UniProt Q8WVM7: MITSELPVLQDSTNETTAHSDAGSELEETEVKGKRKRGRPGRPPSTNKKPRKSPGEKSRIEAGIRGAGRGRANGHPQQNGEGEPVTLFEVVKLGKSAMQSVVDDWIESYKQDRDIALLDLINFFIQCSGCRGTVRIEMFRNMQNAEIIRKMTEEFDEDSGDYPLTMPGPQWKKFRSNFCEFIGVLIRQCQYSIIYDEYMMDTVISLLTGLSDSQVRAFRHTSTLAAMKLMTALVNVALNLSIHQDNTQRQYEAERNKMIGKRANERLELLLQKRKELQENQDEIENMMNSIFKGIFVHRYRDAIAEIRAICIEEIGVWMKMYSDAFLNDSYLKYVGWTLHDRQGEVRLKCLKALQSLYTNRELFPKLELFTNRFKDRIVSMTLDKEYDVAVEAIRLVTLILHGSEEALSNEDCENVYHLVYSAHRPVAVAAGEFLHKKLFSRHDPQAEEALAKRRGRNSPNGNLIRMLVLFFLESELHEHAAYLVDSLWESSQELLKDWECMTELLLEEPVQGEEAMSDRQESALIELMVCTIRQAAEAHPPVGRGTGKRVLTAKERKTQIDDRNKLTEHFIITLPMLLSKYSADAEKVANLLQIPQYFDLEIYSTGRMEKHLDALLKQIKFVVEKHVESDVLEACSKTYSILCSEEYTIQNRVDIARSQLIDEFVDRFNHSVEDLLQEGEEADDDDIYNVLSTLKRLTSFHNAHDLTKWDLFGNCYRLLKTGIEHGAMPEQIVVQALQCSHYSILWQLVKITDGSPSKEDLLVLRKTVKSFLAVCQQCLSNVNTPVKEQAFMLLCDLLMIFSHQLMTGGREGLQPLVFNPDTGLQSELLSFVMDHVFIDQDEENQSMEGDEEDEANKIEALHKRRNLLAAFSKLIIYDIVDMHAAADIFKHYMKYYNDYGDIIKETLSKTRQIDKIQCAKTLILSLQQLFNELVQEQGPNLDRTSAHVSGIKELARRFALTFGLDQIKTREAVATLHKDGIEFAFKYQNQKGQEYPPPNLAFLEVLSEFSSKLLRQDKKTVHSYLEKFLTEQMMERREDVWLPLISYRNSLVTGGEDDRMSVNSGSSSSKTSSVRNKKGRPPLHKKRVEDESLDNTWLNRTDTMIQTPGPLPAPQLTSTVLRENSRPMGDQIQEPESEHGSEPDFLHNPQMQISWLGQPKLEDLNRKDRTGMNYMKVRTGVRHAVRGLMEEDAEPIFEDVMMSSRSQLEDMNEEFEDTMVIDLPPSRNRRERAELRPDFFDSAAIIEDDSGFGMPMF
UniProt Q92667: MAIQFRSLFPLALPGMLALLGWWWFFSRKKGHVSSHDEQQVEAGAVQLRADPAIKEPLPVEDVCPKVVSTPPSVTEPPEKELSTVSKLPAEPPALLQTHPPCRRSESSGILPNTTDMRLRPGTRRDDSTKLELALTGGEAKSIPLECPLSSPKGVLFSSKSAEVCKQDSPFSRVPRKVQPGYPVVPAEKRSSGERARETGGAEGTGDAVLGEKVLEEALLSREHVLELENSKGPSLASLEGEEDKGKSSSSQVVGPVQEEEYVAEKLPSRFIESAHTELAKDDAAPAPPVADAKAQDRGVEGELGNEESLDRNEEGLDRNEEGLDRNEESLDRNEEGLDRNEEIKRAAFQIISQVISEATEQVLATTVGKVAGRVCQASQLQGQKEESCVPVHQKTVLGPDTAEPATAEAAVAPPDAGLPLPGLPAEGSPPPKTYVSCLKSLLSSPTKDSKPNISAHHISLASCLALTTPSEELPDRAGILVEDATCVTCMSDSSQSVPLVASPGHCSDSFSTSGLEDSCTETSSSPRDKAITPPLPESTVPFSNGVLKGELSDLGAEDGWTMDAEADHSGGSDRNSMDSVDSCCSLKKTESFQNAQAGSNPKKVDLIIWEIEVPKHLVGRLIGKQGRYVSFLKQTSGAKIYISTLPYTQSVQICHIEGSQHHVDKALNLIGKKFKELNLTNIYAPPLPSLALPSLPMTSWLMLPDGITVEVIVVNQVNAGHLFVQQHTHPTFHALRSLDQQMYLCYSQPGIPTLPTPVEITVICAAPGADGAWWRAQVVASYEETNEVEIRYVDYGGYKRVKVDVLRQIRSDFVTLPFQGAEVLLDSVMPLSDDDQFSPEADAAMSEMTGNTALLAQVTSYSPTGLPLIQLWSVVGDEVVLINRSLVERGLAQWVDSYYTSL
UniProt Q92769, whole entry: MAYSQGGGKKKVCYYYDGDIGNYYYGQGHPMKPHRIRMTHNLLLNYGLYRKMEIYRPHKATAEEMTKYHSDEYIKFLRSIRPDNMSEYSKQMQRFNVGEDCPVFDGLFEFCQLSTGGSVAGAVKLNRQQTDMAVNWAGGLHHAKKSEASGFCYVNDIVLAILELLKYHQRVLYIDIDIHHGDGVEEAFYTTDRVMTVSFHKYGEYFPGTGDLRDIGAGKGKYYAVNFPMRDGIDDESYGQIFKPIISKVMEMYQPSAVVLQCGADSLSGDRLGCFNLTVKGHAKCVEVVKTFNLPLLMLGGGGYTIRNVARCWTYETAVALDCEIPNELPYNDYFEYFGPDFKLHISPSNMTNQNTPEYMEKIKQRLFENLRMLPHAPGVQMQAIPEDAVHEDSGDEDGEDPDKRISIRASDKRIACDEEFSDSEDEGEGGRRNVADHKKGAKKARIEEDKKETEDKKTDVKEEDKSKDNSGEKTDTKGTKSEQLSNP
UniProt Q8WXG6, whole entry, looked up: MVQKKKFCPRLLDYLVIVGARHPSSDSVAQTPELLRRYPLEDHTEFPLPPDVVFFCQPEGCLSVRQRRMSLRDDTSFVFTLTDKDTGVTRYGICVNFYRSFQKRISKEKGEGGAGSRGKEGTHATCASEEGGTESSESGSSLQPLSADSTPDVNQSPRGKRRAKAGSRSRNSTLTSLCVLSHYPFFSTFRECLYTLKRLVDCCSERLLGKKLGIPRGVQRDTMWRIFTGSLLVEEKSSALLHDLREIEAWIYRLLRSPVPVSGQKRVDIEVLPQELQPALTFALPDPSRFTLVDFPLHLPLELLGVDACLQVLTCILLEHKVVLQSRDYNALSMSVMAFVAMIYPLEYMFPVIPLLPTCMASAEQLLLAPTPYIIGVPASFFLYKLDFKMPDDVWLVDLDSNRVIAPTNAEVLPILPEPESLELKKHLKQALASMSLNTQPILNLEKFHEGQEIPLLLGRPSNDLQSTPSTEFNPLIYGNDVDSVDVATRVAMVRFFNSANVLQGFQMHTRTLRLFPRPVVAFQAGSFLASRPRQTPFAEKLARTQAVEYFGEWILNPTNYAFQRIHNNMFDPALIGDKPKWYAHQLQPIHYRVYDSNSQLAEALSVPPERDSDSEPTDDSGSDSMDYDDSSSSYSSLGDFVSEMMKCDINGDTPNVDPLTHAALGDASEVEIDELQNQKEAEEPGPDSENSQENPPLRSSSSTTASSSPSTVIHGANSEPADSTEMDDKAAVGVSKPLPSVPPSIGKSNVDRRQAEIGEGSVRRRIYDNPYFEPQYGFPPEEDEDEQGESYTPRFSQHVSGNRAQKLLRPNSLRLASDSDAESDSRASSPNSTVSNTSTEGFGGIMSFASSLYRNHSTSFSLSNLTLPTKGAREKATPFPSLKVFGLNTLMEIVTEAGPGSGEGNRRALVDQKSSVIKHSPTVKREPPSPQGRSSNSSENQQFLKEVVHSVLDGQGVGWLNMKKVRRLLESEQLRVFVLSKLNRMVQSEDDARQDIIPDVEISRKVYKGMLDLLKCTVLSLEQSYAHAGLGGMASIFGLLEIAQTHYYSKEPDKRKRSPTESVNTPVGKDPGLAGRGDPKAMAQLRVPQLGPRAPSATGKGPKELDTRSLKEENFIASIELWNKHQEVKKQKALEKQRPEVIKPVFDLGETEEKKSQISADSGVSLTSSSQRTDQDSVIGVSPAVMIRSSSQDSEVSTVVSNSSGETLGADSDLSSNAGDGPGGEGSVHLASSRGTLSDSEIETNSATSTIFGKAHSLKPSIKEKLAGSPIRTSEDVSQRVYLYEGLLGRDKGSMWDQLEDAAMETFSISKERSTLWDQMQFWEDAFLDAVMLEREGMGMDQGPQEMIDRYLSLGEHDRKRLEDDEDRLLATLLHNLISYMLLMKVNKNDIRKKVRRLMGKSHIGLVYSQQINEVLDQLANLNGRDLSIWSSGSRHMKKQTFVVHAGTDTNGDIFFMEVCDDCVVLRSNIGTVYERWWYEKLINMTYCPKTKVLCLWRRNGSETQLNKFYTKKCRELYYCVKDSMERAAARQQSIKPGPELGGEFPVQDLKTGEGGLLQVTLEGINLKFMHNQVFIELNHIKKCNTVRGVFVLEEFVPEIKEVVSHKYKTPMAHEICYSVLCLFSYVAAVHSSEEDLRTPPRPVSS
UniProt Q8NFY9: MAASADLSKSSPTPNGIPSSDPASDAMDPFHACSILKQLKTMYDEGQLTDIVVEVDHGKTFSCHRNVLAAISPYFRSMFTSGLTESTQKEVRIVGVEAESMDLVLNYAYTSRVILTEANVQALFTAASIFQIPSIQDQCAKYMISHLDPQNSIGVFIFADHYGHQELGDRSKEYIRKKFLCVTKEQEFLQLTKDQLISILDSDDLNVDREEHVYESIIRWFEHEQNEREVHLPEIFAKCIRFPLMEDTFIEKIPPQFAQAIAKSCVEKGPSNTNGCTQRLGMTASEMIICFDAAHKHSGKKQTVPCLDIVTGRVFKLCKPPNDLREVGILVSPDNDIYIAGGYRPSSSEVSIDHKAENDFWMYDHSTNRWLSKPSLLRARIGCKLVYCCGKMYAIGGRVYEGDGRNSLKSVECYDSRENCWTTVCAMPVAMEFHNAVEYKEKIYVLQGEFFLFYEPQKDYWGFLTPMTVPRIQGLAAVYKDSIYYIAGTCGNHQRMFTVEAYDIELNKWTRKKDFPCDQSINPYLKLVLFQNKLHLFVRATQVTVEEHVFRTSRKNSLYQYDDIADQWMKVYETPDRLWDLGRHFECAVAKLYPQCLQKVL
UniProt Q8NEC7: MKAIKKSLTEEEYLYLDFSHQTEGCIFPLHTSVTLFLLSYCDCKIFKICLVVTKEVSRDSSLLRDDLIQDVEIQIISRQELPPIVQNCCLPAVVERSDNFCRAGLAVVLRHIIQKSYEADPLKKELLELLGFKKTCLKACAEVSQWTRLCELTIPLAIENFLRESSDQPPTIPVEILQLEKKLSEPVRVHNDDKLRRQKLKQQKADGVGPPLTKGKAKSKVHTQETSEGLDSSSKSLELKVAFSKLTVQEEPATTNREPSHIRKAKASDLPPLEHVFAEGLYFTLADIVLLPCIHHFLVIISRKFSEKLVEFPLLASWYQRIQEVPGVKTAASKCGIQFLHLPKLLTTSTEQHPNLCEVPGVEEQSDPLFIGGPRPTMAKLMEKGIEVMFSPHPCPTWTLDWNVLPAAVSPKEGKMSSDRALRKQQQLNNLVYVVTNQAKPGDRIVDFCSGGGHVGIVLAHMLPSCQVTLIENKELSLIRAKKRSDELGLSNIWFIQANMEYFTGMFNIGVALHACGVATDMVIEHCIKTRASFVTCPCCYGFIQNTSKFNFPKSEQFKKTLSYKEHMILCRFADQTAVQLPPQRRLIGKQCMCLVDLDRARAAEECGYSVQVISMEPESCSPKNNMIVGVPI

Compound: Nc1ncnc2c1ncn2[C@@H]1O[C@H](COP(=O)(O)OP(=O)(O)NP(=O)(O)O)[C@@H](O)[C@H]1O [adenylyl imidodiphosphate]
Experiment: NP40-soluble protein abundance relative to vehicle (solubility fold change) (ratio); higher = more soluble protein in presence of AMP-PNP
How it was run: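 Each value is a fold change relative to the detergent-processed vehicle, calculated per replicate from vsn-normalised intensities. Jurkat crude lysate received eight concentrations (0.1 to 10 mM) for 10 min at room temperature and 3 min at 37 °C, then was solubilised in 0.8% NP40 with benzonase (60 min, 4 °C). The ultracentrifuged supernatant was TMT-labelled and run by LC-MS/MS in three independent experiments.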

Target	NP40-soluble protein abundance (concentration: 0.1mM)	NP40-soluble protein abundance (concentration: 0.5mM)
H1FX (UniProt Q92522)	0.992 ± 0.016	1.03 ± 0.086
NUP37 (UniProt Q8NFH4)	1.02 ± 0.046	1.01 ± 0.063
UniProt Q8NBZ7 and related entries	0.976 ± 0.018	0.9576 ± 0.0035
EDEM1 (UniProt Q92611)	1.01 ± 0.018	0.999 ± 0.022
TDRD7 (UniProt Q8NHU6)	0.977 ± 0.012	0.996 ± 0.029
UniProt Q8NCE2-2	1 ± 0.032	1.05 ± 0.015
GRPEL2 (UniProt Q8TAA5)	1.03 ± 0.053	1.04 ± 0.082
UniProt Q8NC60	0.962 ± 0.076	0.985 ± 0.052
LPGAT1 (UniProt Q92604)	0.983 ± 0.054	0.9509 ± 0.0093
MZB1 (UniProt Q8WU39)	1.02 ± 0.015	1.04 ± 0.046
NUP210 (UniProt Q8TEM1)	1.04 ± 0.018	1 ± 0.042
HSD17B8 (UniProt Q92506)	1.05 ± 0.052	1.02 ± 0.04
NUP205 (UniProt Q92621)	1.03 ± 0.013	0.986 ± 0.11
UniProt Q8WXH0 and related entries	1.01 ± 0.0077	1.012 ± 0.009
RAB2B (UniProt Q8WUD1)	1.01 ± 0.059	0.994 ± 0.028
LRRC8C (UniProt Q8TDW0)	1.009 ± 0.0037	0.9738 ± 0.0028
COPS5 (UniProt Q92905)	1.04 ± 0.069	0.984 ± 0.027
UniProt Q92734 and related entries	0.986 ± 0.024	1 ± 0.053
UniProt Q92581-2|Q92581-3|Q92581	0.9917 ± 0.0092	0.995 ± 0.017
UniProt Q92738 and related entries	0.96 ± 0.021	0.969 ± 0.033
GPT2 (UniProt Q8TD30)	1.01 ± 0.035	0.9683 ± 0.007
PPP1R35 (UniProt Q8TAP8)	0.99 ± 0.012	0.9794 ± 0.0064
UniProt Q8TDD1 and related entries	0.996 ± 0.015	0.987 ± 0.027
UniProt Q92878 and related entries	1 ± 0.025	1.01 ± 0.049
UniProt Q92896 and related entries	0.978 ± 0.012	0.993 ± 0.043

Some of the entries so far, as comma-separated lines.
Target,NP40-soluble protein abundance (concentration: 0.1mM),NP40-soluble protein abundance (concentration: 0.5mM)
EDEM1 (UniProt Q92611),1.01 ± 0.018,0.999 ± 0.022
TDRD7 (UniProt Q8NHU6),0.977 ± 0.012,0.996 ± 0.029
UniProt Q8NCE2-2,1 ± 0.032,1.05 ± 0.015

More entries follow.

Target	NP40-soluble protein abundance (concentration: 0.1mM)	NP40-soluble protein abundance (concentration: 0.5mM)
UniProt Q92804 and related entries	1.07 ± 0.097	1.03 ± 0.062
DNAJC9 (UniProt Q8WXX5)	1.03 ± 0.013	1.01 ± 0.021
UniProt Q8NCW5	0.984 ± 0.037	0.999 ± 0.071
PDZD8 (UniProt Q8NEN9)	0.997 ± 0.022	0.996 ± 0.07
NT5C (UniProt Q8TCD5)	1.03 ± 0.046	0.983 ± 0.016
SORL1 (UniProt Q92673)	0.9892 ± 0.006	1 ± 0.031
SNRNP27 (UniProt Q8WVK2)	0.9976 ± 0.0019	0.991 ± 0.037
SMARCC1 (UniProt Q92922)	1.01 ± 0.035	1.05 ± 0.052
UniProt Q8NFA0 and related entries	0.99 ± 0.054	0.974 ± 0.015
ZNRF2 (UniProt Q8NHG8)	0.979 ± 0.039	0.9891 ± 0.009
UniProt Q8WVM7 and related entries	1.01 ± 0.049	0.966 ± 0.041
UniProt Q92567 and related entries	1.011 ± 0.0027	1 ± 0.019
RBM15B (UniProt Q8NDT2)	1.01 ± 0.018	1.03 ± 0.048
AKAP1 (UniProt Q92667)	0.964 ± 0.032	0.993 ± 0.036
HDAC2 (UniProt Q92769)	1.04 ± 0.025	1.04 ± 0.015
GGH (UniProt Q92820)	1.01 ± 0.029	1.02 ± 0.059
UniProt Q8TCC3 and related entries	1.07 ± 0.047	1.08 ± 0.049
UniProt Q8WV93	1.03 ± 0.12	0.989 ± 0.11
UniProt Q8NEZ2 and related entries	0.965 ± 0.042	0.979 ± 0.027
UniProt Q8ND82 and related entries	0.984 ± 0.018	1.03 ± 0.025
UniProt Q92766 and related entries	1 ± 0.02	1 ± 0.049
UniProt Q8TBX8	0.9964 ± 0.005	0.985 ± 0.014
UniProt Q8NDX5 and related entries	1.01 ± 0.02	1.03 ± 0.027
C15orf40 (UniProt Q8WUR7)	0.984 ± 0.024	1.02 ± 0.025
UniProt Q8WZA9	0.985 ± 0.014	1 ± 0.058

Single records, as listed above. Order of values: NP40-soluble protein abundance (concentration: 0.1mM)	NP40-soluble protein abundance (concentration: 0.5mM)
SMARCC1 (UniProt Q92922) as listed: 1.01 ± 0.035	1.05 ± 0.052
DNAJC9 (UniProt Q8WXX5) as listed: 1.03 ± 0.013	1.01 ± 0.021
SNRNP27 (UniProt Q8WVK2) as listed: 0.9976 ± 0.0019	0.991 ± 0.037
UniProt Q8NFA0 and related entries as listed: 0.99 ± 0.054	0.974 ± 0.015

Going on with the list:

Target	NP40-soluble protein abundance (concentration: 0.1mM)	NP40-soluble protein abundance (concentration: 0.5mM)
FBXO30 (UniProt Q8TB52)	1.009 ± 0.0054	0.988 ± 0.03
UniProt Q92636 and related entries	0.981 ± 0.029	0.992 ± 0.066
TRUB1 (UniProt Q8WWH5)	1.02 ± 0.055	1.06 ± 0.046
UniProt Q8NEZ5 and related entries	1.045 ± 0.0043	1.02 ± 0.074
UniProt Q8NEZ4 and related entries	0.966 ± 0.05	0.938 ± 0.077
UniProt Q8TB72-3	0.9713 ± 0.0054	1 ± 0.075
UniProt Q92574 and related entries	1.01 ± 0.027	0.997 ± 0.036
UniProt Q8WXE1 and related entries	0.975 ± 0.035	0.99 ± 0.047
UniProt Q8NDV3-2|Q8NDV3-3	0.943 ± 0.019	0.971 ± 0.015
UniProt Q92608 and related entries	1.02 ± 0.044	0.989 ± 0.071
IP6K1 (UniProt Q92551)	0.982 ± 0.013	0.978 ± 0.03
UniProt Q8WWY3 and related entries	0.984 ± 0.02	0.9912 ± 0.0045
UniProt Q8TCT9 and related entries	0.978 ± 0.033	0.981 ± 0.063
UniProt Q8WXG6-4|Q8WXG6-5|Q8WXG6-6|Q8WXG6-7|Q8WXG6-8|Q8WXG6	1.01 ± 0.028	1.02 ± 0.026
ZNF592 (UniProt Q92610)	1 ± 0.056	0.991 ± 0.047
NUP133 (UniProt Q8WUM0)	0.988 ± 0.012	0.935 ± 0.041
UniProt Q8TF05 and related entries	1.01 ± 0.064	0.922 ± 0.076
ZC3H15 (UniProt Q8WU90)	0.9726 ± 0.0085	1.01 ± 0.044
UniProt Q8TAA9 and related entries	0.983 ± 0.041	1.01 ± 0.019
UniProt Q92900 and related entries	1 ± 0.027	0.98 ± 0.08
UniProt Q8TEV9 and related entries	0.97 ± 0.052	0.97 ± 0.03
UniProt Q8NI22 and related entries	0.976 ± 0.027	0.997 ± 0.018
UniProt Q8TF46 and related entries	1 ± 0.03	1.02 ± 0.03
UniProt Q8WYQ5 and related entries	1.05 ± 0.059	0.974 ± 0.019
CHD6 (UniProt Q8TD26)	1.01 ± 0.018	0.983 ± 0.047

Target	NP40-soluble protein abundance (concentration: 0.1mM)	NP40-soluble protein abundance (concentration: 0.5mM)
UniProt Q92542 and related entries	0.9698 ± 0.0093	0.995 ± 0.029
BRI3BP (UniProt Q8WY22)	0.9961 ± 0.0066	1.04 ± 0.034
UniProt Q8WU10 and related entries	0.998 ± 0.03	0.966 ± 0.055
LPCAT1 (UniProt Q8NF37)	0.963 ± 0.02	0.95 ± 0.062
UniProt Q92783 and related entries	0.989 ± 0.018	1.06 ± 0.04
FIG4 (UniProt Q92562)	0.979 ± 0.018	0.9798 ± 0.0084
NEK7 (UniProt Q8TDX7)	1.05 ± 0.036	1.03 ± 0.045
NUDT8 (UniProt Q8WV74)	1.01 ± 0.013	1.03 ± 0.031
UniProt Q8WUB8 and related entries	0.98 ± 0.023	1.02 ± 0.026
UniProt Q8TCZ2 and related entries	0.954 ± 0.033	0.975 ± 0.046
KBTBD7 (UniProt Q8WVZ9)	1.03 ± 0.014	0.979 ± 0.019
UniProt Q92859 and related entries	1 ± 0.026	0.967 ± 0.03
UniProt Q8TBN0 and related entries	1.02 ± 0.021	1.01 ± 0.03
KBTBD8 (UniProt Q8NFY9)	0.973 ± 0.011	0.975 ± 0.056
PIGK (UniProt Q92643)	1.03 ± 0.029	1 ± 0.078
UniProt Q8TB36 and related entries	0.988 ± 0.021	0.986 ± 0.049
UniProt Q92688 and related entries	1.03 ± 0.049	1.03 ± 0.03
RABGGTA (UniProt Q92696)	1.02 ± 0.049	0.969 ± 0.1
SPRYD4 (UniProt Q8WW59)	0.998 ± 0.018	0.991 ± 0.064
GSTCD (UniProt Q8NEC7)	0.991 ± 0.019	1 ± 0.039
UniProt Q8TDZ2 and related entries	0.979 ± 0.025	0.988 ± 0.038
KHSRP (UniProt Q92945)	0.973 ± 0.018	1.01 ± 0.058
